Source: patent US20140135288A1
These are yes or no findings as the source states them, for the method shown. Binding seen in cells or lysates may run through a third protein. Some entries that bind do so weakly or less than the wild type. Where a sequence is shown, tags or fusion partners need not be part of it.

Chains of the proteins cited; added tags and fusions are not shown. Residues count along the entry.
UniProt P0DMV8, residues 2-641: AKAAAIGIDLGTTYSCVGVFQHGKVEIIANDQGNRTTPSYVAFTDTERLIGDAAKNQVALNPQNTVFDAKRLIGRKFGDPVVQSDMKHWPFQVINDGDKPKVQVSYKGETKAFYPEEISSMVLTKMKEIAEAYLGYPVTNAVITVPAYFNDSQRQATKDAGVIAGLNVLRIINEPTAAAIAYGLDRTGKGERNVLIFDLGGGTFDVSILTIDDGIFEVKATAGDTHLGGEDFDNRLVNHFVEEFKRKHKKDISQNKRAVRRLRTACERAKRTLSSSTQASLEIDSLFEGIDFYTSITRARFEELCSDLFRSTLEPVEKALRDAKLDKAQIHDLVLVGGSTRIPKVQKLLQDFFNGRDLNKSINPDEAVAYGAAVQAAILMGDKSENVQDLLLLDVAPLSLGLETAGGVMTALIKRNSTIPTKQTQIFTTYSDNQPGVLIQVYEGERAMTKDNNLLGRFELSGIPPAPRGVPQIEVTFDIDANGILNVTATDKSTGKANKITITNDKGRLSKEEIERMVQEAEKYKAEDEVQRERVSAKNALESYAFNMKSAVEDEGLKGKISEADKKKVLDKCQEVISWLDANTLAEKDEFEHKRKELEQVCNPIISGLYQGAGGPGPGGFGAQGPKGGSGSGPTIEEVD
UniProt P19838: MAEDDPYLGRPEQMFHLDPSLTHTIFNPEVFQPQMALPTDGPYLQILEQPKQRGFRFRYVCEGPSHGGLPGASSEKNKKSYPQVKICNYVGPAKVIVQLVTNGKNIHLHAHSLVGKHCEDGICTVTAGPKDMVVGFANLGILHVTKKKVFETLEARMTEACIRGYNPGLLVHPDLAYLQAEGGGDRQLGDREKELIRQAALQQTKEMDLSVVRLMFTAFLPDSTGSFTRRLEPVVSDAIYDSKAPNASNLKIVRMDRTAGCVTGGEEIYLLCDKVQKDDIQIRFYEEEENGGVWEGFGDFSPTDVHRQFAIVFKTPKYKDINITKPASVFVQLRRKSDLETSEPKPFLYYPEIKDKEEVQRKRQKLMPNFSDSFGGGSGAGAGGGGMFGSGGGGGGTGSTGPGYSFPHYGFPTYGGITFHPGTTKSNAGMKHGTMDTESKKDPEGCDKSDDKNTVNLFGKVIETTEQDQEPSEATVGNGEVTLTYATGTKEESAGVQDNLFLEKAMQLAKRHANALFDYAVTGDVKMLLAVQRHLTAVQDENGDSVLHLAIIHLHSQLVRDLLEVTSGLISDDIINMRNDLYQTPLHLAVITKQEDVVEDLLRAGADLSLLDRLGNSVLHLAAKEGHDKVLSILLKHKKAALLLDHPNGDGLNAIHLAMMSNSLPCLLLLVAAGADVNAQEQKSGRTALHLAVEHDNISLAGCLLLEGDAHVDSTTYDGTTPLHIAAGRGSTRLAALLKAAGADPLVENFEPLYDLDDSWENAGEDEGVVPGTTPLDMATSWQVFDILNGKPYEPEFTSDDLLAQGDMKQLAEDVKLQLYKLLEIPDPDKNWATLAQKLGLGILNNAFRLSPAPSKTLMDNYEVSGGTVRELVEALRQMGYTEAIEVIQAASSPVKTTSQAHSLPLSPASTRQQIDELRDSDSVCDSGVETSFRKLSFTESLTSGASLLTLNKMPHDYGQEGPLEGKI

B1: NF-κB2 (p100)-V5 tagged protein (protein, human, UniProt Q00653 1-900, looked up, not shown: small tags and cut ends)
chain: MESCYNPGLDGIIEYDDFKLNSSIVEPKEPAPETADGPYLVIVEQPKQRGFRFRYGCEGPSHGGLPGASSEKGRKTYPTVKICNYEGPAKIEVDLVTHSDPPRAHAHSLVGKQCSELGICAVSVGPKDMTAQFNNLGVLHVTKKNMMGTMIQKLQRQRLRSRPQGLTEAEQRELEQEAKELKKVMDLSIVRLRFSAFLRASDGSFSLPLKPVISQPIHDSKSPGASNLKISRMDKTAGSVRGGDEVYLLCDKVQKDDIEVRFYEDDENGWQAFGDFSPTDVHKQYAIVFRTPPYHKMKIERPVTVFLQLKRKRGGDVSDSKQFTYYPLVEDKEEVQRKRRKALPTFSQPFGGGSHMGGGSGGAAGGYGGAGGGGSLGFFPSSLAYSPYQSGAGPMGCYPGGGGGAQMAATVPSRDSGEEAAEPSAPSRTPQCEPQAPEMLQRAREYNARLFGLAQRSARALLDYGVTADARALLAGQRHLLTAQDENGDTPLHLAIIHGQTSVIEQIVYVIHHAQDLGVVNLTNHLHQTPLHLAVITGQTSVVSFLLRVGADPALLDRHGDSAMHLALRAGAGAPELLRALLQSGAPAVPQLLHMPDFEGLYPVHLAVRARSPECLDLLVDSGAEVEATERQGGRTALHLATEMEELGLVTHLVTKLRANVNARTFAGNTPLHLAAGLGYPTLTRLLLKAGADIHAENEEPLCPLPSPPTSDSDSDSEGPEKDTRSSFRGHTPLDLTCSTKVKTLLLNAAQNTMEPPLTPPSPAGPGLSLGDTALQNLEQLLDGPEAQGSWAELAERLGLRSLVDTYRQTTSPSGSLLRSYELAGGDLAGLLEALSDMGLEEGVRLLRGPETRDKLPSTAEVKEDSAYGSQSVEQEAEKLGPPPEPPGGLCHGHPQPQVH

Legend:
[1] = target: heat shock protein (HSP) 70 (UniProt P0DMV8); assay: co-immunoprecipitation with V5 antibody, Western blot (FIG. 13)
[2] = target: heat shock protein (HSP) 70 (UniProt P0DMV8); assay: co-immunoprecipitation with V5 antibody from Daudi cell lysate, Western blot for HSP70

Molecule	binding [1]	binding [2]
NF-κB1 (P105)-V5 tagged protein (from UniProt P19838 1-968)	binds	binds
B1	binds	binds
